Assay results published in patent publication US20120010177A1, “MicroRNA Modulators and Method for Identifying And Using The Same” (The Wistar Institute / North Carolina State University, priority 2008, published 2012).
At least one read-out could not be matched to a standard name with certainty.

Test system: miR-21
Experiment: High throughput primary miR-21 FLuc reporter assay (concentration-response)
Format: cell-based, human
Conditions: Table 12 singletons
Description: Primary miR-21 Assay. The primary miR-21 FLuc reporter assay is carried out with HeLa cells expressing the Luc-miR-21 reporter using a 48-hour incubation time. Active compounds that increase the luciferase response are identified based upon inhibition of miR-21.
SAR. The concentration-response data for the entire high throughput screen is plotted and modeled by a four parameter logistic fit and SAR analysis is performed according to conventional approaches (Iglese, et al. (2006) Proc. Natl. Acad. Sci. USA […]:11473-8). In brief, Class 1.1 and 1.2 are full curves containing upper and lower asymptotes with efficacy ≧80% and <80%, respectively. Class 2.1 and 2.2 are incomplete curves having only one asymptote with efficacy ≧80% and <80%, respectively. Class 3 curves show activity at only the highest concentration or are poorly fit. […] For SAR analysis, compounds associated with Class 1 and 2.1 curves are clustered using LEADSCOPE® fingerprints. […] Compounds sharing a common scaffold form a series. Candidate series and singletons are chosen for follow up studies. For each lead or series, an appropriate library design method (e.g., point substitution library or matrix library) is selected. Typically, precursors are synthesized and a library of 15-25 compounds is produced for analysis in the above-described assays.

COc1ccc(-c2c/c(=N\CC(=O)O)c3ccccc3o2)cc1.[O-][Cl+3]([O-])([O-])O [Compound 263]
Curve Class: −2.2

COP(=O)(OC)C(Nc1ccc(C)cc1)c1ccc([N+](=O)[O-])cc1 (stereo not drawn) [Compound 286]
Curve Class: −2.2

CC(=O)COc1ccc2c3c(c(=O)oc2c1C)CCCCC3 [Compound 261]
Curve Class: −1.2
